# Positions count from the first letter of the chain named. No constants are given. Whether binding was seen depends on the method and setting. In cells and extracts the contact can be indirect. Some results given as binding are weak or reduced against the parent protein; the word gives no strength. For part of these data: Tags and fused reporters may be left off the sequences shown.
# Amino acid sequences for entries named in this document (tags omitted). Residues count along the entry.
# UniProt P70208, residues 20-1872: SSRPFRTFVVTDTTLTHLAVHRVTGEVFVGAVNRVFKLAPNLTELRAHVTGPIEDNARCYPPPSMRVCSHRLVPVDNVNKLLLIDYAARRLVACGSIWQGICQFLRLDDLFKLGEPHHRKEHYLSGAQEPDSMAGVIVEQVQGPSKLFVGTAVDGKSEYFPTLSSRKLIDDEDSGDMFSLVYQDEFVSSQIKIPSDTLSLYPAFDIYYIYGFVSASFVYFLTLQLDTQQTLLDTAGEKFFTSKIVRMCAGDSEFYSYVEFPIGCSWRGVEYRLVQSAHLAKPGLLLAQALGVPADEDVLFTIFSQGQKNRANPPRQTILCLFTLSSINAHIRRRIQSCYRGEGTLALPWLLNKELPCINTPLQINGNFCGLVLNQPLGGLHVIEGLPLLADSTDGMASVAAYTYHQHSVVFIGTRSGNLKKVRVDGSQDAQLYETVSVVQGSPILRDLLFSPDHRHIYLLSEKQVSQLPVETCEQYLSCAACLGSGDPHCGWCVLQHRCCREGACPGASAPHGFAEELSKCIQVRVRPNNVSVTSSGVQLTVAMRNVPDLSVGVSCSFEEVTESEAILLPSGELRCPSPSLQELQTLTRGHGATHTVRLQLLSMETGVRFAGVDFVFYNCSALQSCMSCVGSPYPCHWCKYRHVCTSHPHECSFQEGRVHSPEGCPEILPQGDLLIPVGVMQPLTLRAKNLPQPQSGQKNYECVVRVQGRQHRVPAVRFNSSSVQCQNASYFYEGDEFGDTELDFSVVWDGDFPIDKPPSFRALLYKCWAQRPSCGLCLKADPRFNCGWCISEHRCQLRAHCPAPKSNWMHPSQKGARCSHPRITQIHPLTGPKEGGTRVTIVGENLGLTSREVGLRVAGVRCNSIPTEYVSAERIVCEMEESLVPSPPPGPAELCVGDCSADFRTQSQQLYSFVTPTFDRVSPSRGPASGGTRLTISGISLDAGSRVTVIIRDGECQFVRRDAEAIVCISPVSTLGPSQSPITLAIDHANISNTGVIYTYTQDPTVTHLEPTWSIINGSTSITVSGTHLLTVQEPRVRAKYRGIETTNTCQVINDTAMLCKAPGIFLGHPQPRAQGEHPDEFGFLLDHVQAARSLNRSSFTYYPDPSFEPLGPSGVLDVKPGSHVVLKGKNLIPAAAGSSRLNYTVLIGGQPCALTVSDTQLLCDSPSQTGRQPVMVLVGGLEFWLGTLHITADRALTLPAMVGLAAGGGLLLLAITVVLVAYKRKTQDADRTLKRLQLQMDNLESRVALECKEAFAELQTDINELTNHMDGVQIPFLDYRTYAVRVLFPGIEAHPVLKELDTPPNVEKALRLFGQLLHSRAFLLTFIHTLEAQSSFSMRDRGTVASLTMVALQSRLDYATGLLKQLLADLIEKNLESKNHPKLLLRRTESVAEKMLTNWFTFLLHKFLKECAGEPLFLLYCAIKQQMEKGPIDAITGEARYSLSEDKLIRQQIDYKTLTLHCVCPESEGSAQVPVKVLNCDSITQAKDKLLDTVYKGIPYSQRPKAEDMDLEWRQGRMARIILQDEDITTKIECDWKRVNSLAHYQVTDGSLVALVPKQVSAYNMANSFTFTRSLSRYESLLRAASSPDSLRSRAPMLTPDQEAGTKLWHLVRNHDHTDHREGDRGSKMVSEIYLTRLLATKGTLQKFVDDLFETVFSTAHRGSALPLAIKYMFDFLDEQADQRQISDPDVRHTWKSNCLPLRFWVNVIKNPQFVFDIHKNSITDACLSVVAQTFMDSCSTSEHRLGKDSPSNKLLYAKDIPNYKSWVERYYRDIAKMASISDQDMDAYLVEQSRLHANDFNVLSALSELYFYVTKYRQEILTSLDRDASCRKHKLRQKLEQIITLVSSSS
# What was measured:
# [1] = target: T1, flag-tagged wild-type neuropilin-2 (mouse) (UniProt O35375); experiment: co-IP; HEK293T cells co-transfected with flag-tagged WT Nrp2 and pHluorin-tagged WT, Full CS or TCS Nrp2 or backbone vector; flag-Nrp2 WT immunoprecipitated with a flag antibody, immunoblot with flag or GFP antibody; TNE lysis buffer, washes with 500 mM and 150 mM NaCl
# T1 sequence: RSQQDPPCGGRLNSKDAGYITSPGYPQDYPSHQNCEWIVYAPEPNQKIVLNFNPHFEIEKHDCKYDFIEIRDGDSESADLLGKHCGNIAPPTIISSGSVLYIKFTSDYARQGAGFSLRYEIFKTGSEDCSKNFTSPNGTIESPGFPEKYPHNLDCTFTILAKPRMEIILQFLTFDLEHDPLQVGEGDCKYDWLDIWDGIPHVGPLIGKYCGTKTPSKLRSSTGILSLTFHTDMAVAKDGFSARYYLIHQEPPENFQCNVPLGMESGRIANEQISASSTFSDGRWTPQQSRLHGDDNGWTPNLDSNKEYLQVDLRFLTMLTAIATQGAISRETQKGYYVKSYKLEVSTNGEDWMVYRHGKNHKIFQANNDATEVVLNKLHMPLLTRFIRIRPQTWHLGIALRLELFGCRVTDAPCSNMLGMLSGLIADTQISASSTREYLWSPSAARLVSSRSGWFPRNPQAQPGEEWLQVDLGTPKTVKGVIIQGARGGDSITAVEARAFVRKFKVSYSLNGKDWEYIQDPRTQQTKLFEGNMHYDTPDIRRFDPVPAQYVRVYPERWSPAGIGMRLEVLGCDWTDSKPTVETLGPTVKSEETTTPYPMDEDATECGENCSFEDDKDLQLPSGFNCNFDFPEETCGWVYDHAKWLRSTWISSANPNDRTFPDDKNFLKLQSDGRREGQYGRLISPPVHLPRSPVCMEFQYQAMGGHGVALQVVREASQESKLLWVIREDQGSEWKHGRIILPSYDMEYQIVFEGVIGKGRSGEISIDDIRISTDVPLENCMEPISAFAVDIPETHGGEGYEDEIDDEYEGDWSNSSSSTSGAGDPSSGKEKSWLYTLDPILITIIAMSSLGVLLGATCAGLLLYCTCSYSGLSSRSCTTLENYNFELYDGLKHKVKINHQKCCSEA
# [2] = target: T2, Full CS neuropilin-2 (C878S/C885S/C887S/C897S/C922S/C923S) as used in the PlexA3 co-immunoprecipitation (mouse) (UniProt O35375); experiment: co-IP; HEK293T cells co-transfected with myc-tagged PlexA3 and WT Nrp2, Full CS Nrp2 or backbone vector; lysis in TNE buffer (NP-40, Tris, EDTA, NaCl), antibody overnight at 4°C, protein A/G agarose, washes with 500 mM and 150 mM NaCl; immunoblot against myc
# T2 sequence: T1 sequence with C858S, C865S, C867S, C877S, C902S, C903S
# [3] = target: T3, wild-type neuropilin-2 (Nrp2 WT) as used in the PlexA3 co-immunoprecipitation (mouse) (UniProt O35375); experiment: as above
# T3 sequence: T1 sequence
substance,measurement,setting,value
pHluorin-tagged wild-type neuropilin-2 (from UniProt O35375-4 21-926) (receptor),binding,[1],binds
myc-tagged plexinA3 (PlexA3) (from UniProt P70208 20-1872) (receptor),binding,[2],binds
same,binding,[3],binds

# From paper PMC10069869
